Source: patent US20160347802A1

Key:
[1] = target: RGMc, AVEXIS protein; assay: AVEXIS competition: RGMc bait, Neo1 prey, purified Draxin as inhibitor
[2] = target: Vasn (Slit-like2), AVEXIS protein; assay: AVEXIS competition: Vasn bait, Islr2 prey, Draxin232-252aa-hFC as inhibitor
[3] = target: Cntn1a, AVEXIS protein; assay: AVEXIS competition: Cntn1a bait, Ptprz1b prey, Draxin232-252aa-hFC as inhibitor
[4] = target: EphB4a, AVEXIS protein; assay: AVEXIS competition: EphB4a bait, EphrinB2a prey, Draxin232-252aa-hFC as inhibitor
[5] = target: zebrafish Dcc extracellular domain, AVEXIS prey protein (zebrafish); assay: AVEXIS
[6] = target: zebrafish Neo1 extracellular domain, AVEXIS prey protein (zebrafish); assay: AVEXIS
[7] = target: zebrafish Unc5b extracellular domain, AVEXIS prey protein (zebrafish); assay: AVEXIS

B1: purified His-tagged full-length zebrafish Draxin protein (Draxin-CD4d3+4-6XHis) (ligand, not shown: small tags and cut ends)
chain: SEISSDNFKQSLTPSTTTSKEHPETGLTGGRQQKRHWSGKERDSAGLFSQRHMDRLEDDGTSMEGLSPVRLEMGPGDTMKAEVHGEVRASAQMRQGSHPAEGELNRKGRRHSHRLLAEHRKHGGKKDKGRGKGDLSDPEPELDSLLKDLNAFEDGLNTSPPNYNSVPLNEVPSPLSPILVTTAIKGHPPTLPPASTKPQKSSQGRTQGEVMPTLDMTLFDWTDYEDMKPADSWPSNKRKDKRRSKNKSNGNTTTEAGIVEPCDHHLDCLSGSCCDLREFECKPHNRGLNNKCFDDCMCEEGLRCYAKFHRKRRVTRRRGRCVDPESVNSNQGAFITV
[1]
  binding: no binding (tested: 10000 nM)

## EVMPTLDMTLFDWTDYEDMKP (Fc fusion, not shown: a dimerising Fc or GST) [Draxinaa232-252-hFc]
[2]
  binding: no binding (tested: dilution 1, no concentration printed)
[3]
  binding: no binding (tested: dilution 1, no concentration printed)
[4]
  binding: no binding (tested: dilution 1, no concentration printed)

B2: zebrafish DraxinA, AVEXIS prey or bait protein (ligand)
chain: B1 chain
[5]
  binding: no binding
[6]
  binding: no binding
[7]
  binding: no binding

Results are given in words; binding and its absence hold for the method and conditions named. For some of these results: Tags and fused reporters may be left off the sequences shown.
